The record followed here is US20060110388A1.

Amino acid sequences for entries named in this document (tags omitted). Residues count along the entry.
UniProt P05067, residues 672-711: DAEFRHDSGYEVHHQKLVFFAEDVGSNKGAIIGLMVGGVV

Results are given in words; binding and its absence hold for the method and conditions named. Some binding calls cover weakened binding; strength is not graded here.

The labels stand for the following.
B1: A7 Fab (Fab, V domains shown)
VH: EVQLLESGGGLVQPGGSLRLSCAASGFTFSRYSMSWVRQAPGKGLEWVSQISSVGNSTYYPDTVKGRFTISRDNSKNTLYLQMNSLRSEDTAVYYCAKGPYWGQGTLVTVSS
VL: DVVMTQSPLSLPVTLGQPASISCRSSQSLIYSDGNAYLHWFQQRPGQSPRRLIYKVSNRFSGVPDRFSGSGSGTDFTLKISRVEAEDVGVYYCSQSTHVPWAFGGGTKVEIK
B2: 1D4 Fab (Fab, V domains shown)
VH: EVQLVESGGGLVKPGGSLRLSCAASGFTFSRYSMSWVRQAPGKGLEWVGQINSQGNSTYYPDTVKGRFTISRDDSKNTLYLQMNSLKTEDTAVYYCTTGDRWGQGTLVTVSS
VL: DIVMTQTPLSLSVTPGQPASISCRSSQSLIYSDGNAYLHWYLQKPGQSPQLLIYKVSNRFSGVPDRFSGSGSGTDFTLKISRVEAEDVGVYYCSQSTHSPWTFGGGTKVEIK
B3: 1B1 Fab (Fab, V domains shown)
VH: EVQLVESGGGLVKPGGSLRLSCAASGFTFSRYSMSWVRQAPGKGLEWVGQINSRGNNTYYPDTVKGRFTISRDDSKNTLYLQMNSLKTEDTAVYYCTTGDFWGQGTLVTVSS
VL: DIVMTQTPLSLSVTPGQPASISCRSSQSLIYSDGNAYLHWYLQKPGQSPQLLIYKVSNRFSGVPDRFSGSGSGTDFTLKISRVEAEDVGVYYCSQSTHSPWTFGGGTKVEIK
B4: 3H1 Fab (Fab, V domains shown)
VH: EVQLVESGGGLVKPGGSLRLSCAASGFTFSRYSMSWVRQAPGKGLEWVGQINSVGNSTYYPDKVKGRFTISRDDSKNTLYLQMNSLKTEDTAVYYCTTGDFWGQGTLVTVSS
VL: DIVMTQTPLSLSVTPGQPASISCRSSQSLIYSDGNAYLHWYLQKPGQSPQLLIYKVSNRFSGVPDRFSGSGSGTDFTLKISRVEAEDVGVYYCSQSTHSPWTFGGGTKVEIK
B5: 3H2 Fab (Fab, V domains shown)
VH: EVQLVESGGGLVKPGGSLRLSCAASGFTFSRYSMSWVRQAPGKGLEWVGQINSVGNSTYYPDAVKGRFTISRDDSKNTLYLQMNSLKTEDTAVYYCTTGDFWGQGTLVTVSS
VL: DIVMTQTPLSLSVTPGQPASISCRSSQSLIYSDGNAYLHWYLQKPGQSPQLLIYKVSNRFSGVPDRFSGSGSGTDFTLKISRVEAEDVGVYYCSQSTHSPWTFGGGTKVEIK
B6: 3F9 Fab (Fab, V domains shown)
VH: EVQLVESGGGLVKPGGSLRLSCAASGFTFSRYSMSWVRQAPGKGLEWVGQINSRGNSTYYPDTVKGRFTISRDDSKNTLYLQMNSLKTEDTAVYYCTTGDVWGQGTLVTVSS
VL: DIVMTQTPLSLSVTPGQPASISCRSSQSLIYSDGNAYLHWYLQKPGQSPQLLIYKVSNRFSGVPDRFSGSGSGTDFTLKISRVEAEDVGVYYCSQSTHSPWTFGGGTKVEIK
B7: 7E1 Fab (Fab, V domains shown)
VH: EVQLVESGGGLVKPGGSLRLSCAASGFTFSRYSMSWVRQAPGKGLEWVGQINSRGNSTYYPDTVKGRFTISRDDSKNTLYLQMNSLKTEDTAVYYCTTGDFWGQGTLVTVSS
VL: DIVMTQTPLSLSVTPGQPASISCSSSQSLIYSDGNAYLHWYLQKPGQSPQLLIYKVSNRFSGVPDRFSGSGSGTDFTLKISRVEAEDVGVYYCSQSTHSPWTFGGGTKVEIK
B8: 2B2 Fab (Fab, V domains shown)
VH: EVQLVESGGGLVKPGGSLRLSCAASGFTFSRYSMSWVRQAPGKGLEWVGQINIRGNSTYYPDTVKGRFTISRDDSKNTLYLQMNSLKTEDTAVYYCTTGDFWGQGTLVTVSS
VL: DIVMTQTPLSLSVTPGQPASISCRSSQSLIYSDGNAYLHWYLQKPGQSPQLLIYKVSNRFSGVPDRFSGSGSGTDFTLKISRVEAEDVGVYYCSQSTHSPWTFGGGTKVEIK
B9: 1B7 Fab (Fab, V domains shown)
VH: EVQLVESGGGLVKPGGSLRLSCAASGFTFSRYSMSWVRQAPGKGLEWVGQINSRGNSTYYPDTVKGRFTISRDDSKNTLYLQMNSLKTEDTAVYYCTTGDFWGQGTLVTVSS
VL: DIVMTQTPLSLSVTPGQPASISCRSSQSLIYSDGNAYLHWYLQKPGQSPQLLIYKVSNRFSGVPDRFSGSGSGTDFTLKISRVEAEDVGVYYCSQSTHSPWTFGGGTKVEIK
B10: 1A2 Fab (Fab, V domains shown)
VH: EVQLVESGGGLVKPGGSLRLSCAASGFTFSRYSMSWVRQAPGKGLEWVGQINSRGNHTYYPDTVKGRFTISRDDSKNTLYLQMNSLKTEDTAVYYCTTGDFWGQGTLVTVSS
VL: DIVMTQTPLSLSVTPGQPASISCRSSQSLIYSDGNAYLHWYLQKPGQSPQLLIYKVSNRFSGVPDRFSGSGSGTDFTLKISRVEAEDVGVYYCSQSTHSPWTFGGGTKVEIK
B11: 3D12 Fab (Fab, V domains shown)
VH: EVQLVESGGGLVKPGGSLRLSCAASGFTFSRYSMSWVRQAPGKGLEWVGQINSPGNSTYYPDTVKGRFTISRDDSKNTLYLQMNSLKTEDTAVYYCTTGDFWGQGTLVTVSS
VL: DIVMTQTPLSLSVTPGQPASISCRSSQSLIYSDGNAYLHWYLQKPGQSPQLLIYKVSNRFSGVPDRFSGSGSGTDFTLKISRVEAEDVGVYYCSQSTHAPWTFGGGTKVEIK
B12: 6H8 Fab (Fab, V domains shown)
VH: EVQLVESGGGLVKPGGSLRLSCAASGFTFSRYSMSWVRQAPGKGLEWVGQINSVGNSTYYPDEVKGRFTISRDDSKNTLYLQMNSLKTEDTAVYYCTTGDFWGQGTLVTVSS
VL: DIVMTQTPLSLSVTPGQPASISCRSSQSLIYSDGNAYLHWYLQKPGQSPQLLIYKVSNRFSGVPDRFSGSGSGTDFTLKISRVEAEDVGVYYCSQSTHSPWTFGGGTKVEIK
B13: 4D6 Fab (Fab, V domains shown)
VH: EVQLVESGGGLVKPGGSLRLSCAASGFTFSRYSMSWVRQAPGKGLEWVGQINSRGNSTYYPDTVKGRFTISRDDSKNTLYLQMNSLKTEDTAVYYCTTGDFWGQGTLVTVSS
VL: DIVMTQTPLSLSVTPGQPASISCRSNQSLIYSDGNAYLHWYLQKPGQSPQLLIYKVSNRFSGVPDRFSGSGSGTDFTLKISRVEAEDVGVYYCSQSTHSPWTFGGGTKVEIK
B14: 6F9 Fab (Fab, V domains shown)
VH: EVQLVESGGGLVKPGGSLRLSCAASGFTFSRYSMSWVRQAPGKGLEWVGQINSRGNSTYYPDPVKGRFTISRDDSKNTLYLQMNSLKTEDTAVYYCTTGDFWGQGTLVTVSS
VL: DIVMTQTPLSLSVTPGQPASISCRSSQSLIYSDGNAYLHWYLQKPGQSPQLLIYKVSNRFSGVPDRFSGSGSGTDFTLKISRVEAEDVGVYYCSQSTHSPWTFGGGTKVEIK
B15: 4D9 Fab (Fab, V domains shown)
VH: EVQLVESGGGLVKPGGSLRLSCAASGFTFSRYSMSWVRQAPGKGLEWVGQINSRGNSTYYPDTVKGRFTISRDDSKNTLYLQMNSLKTEDTAVYYCTTGDFWGQGTLVTVSS
VL: DIVMTQTPLSLSVTPGQPASISCRSSISLIYSDGNAYLHWYLQKPGQSPQLLIYKVSNRFSGVPDRFSGSGSGTDFTLKISRVEAEDVGVYYCSQSTHSPWTFGGGTKVEIK
B16: 6D4 Fab (Fab, V domains shown)
VH: EVQLVESGGGLVKPGGSLRLSCAASGFTFSRYSMSWVRQAPGKGLEWVGQINSRGNSTYYPDTVKGRFTISRDDSKNTLYLQMNSLKTEDTAVYYCTTGDFWGQGTLVTVSS
VL: DIVMTQTPLSLSVTPGQPASISCRSSQSLIYWDGNAYLHWYLQKPGQSPQLLIYKVSNRFSGVPDRFSGSGSGTDFTLKISRVEAEDVGVYYCSQSTHSPWTFGGGTKVEIK
B17: 6D3 Fab (Fab, V domains shown)
VH: EVQLVESGGGLVKPGGSLRLSCAASGFTFSRYSMSWVRQAPGKGLEWVGQINSRGNSTYYPDTVKGRFTISRDDSKNTLYLQMNSLKTEDTAVYYCTTGDFWGQGTLVTVSS
VL: DIVMTQTPLSLSVTPGQPASISCRSSQSLIYSDGIAYLHWYLQKPGQSPQLLIYKVSNRFSGVPDRFSGSGSGTDFTLKISRVEAEDVGVYYCSQSTHSPWTFGGGTKVEIK
B18: 6F6 Fab (Fab, V domains shown)
VH: EVQLVESGGGLVKPGGSLRLSCAASGFTFSRYSMSWVRQAPGKGLEWVGQINSVGNSTYYPDTVTGRFTISRDDSKNTLYLQMNSLKTEDTAVYYCTTGDFWGQGTLVTVSS
VL: DIVMTQTPLSLSVTPGQPASISCRSSQSLIYSDGNAYLHWYLQKPGQSPQLLIYKVSNRFSGVPDRFSGSGSGTDFTLKISRVEAEDVGVYYCSQSTHSPWTFGGGTKVEIK
B19: 4F12 Fab (Fab, V domains shown)
VH: EVQLVESGGGLVKPGGSLRLSCAASGFTFSRYSMSWVRQAPGKGLEWVGQINSRGNSTYYPDTVKGRFTISRDDSKNTLYLQMNSLKTEDTAVYYCTTGDFWGQGTLVTVSS
VL: DIVMTQTPLSLSVTPGQPASISCRSSKSLIYSDGNAYLHWYLQKPGQSPQLLIYKVSNRFSGVPDRFSGSGSGTDFTLKISRVEAEDVGVYYCSQSTHSPWTFGGGTKVEIK
B20: 2A11 Fab (Fab, V domains shown)
VH: EVQLVESGGGLVKPGGSLRLSCAASGFTFSRYSMSWVRQAPGKGLEWVGQINSRGNRTYYPDTVKGRFTISRDDSKNTLYLQMNSLKTEDTAVYYCTTGDFWGQGTLVTVSS
VL: DIVMTQTPLSLSVTPGQPASISCRSSQSLIYSDGNAYLHWYLQKPGQSPQLLIYKVSNRFSGVPDRFSGSGSGTDFTLKISRVEAEDVGVYYCSQSTHSPWTFGGGTKVEIK
B21: 4D1 Fab (Fab, V domains shown)
VH: EVQLVESGGGLVKPGGSLRLSCAASGFTFSRYSMSWVRQAPGKGLEWVGQINSRGNSTYYPDTVKGRFTISRDDSKNTLYLQMNSLKTEDTAVYYCTTGDFWGQGTLVTVSS
VL: DIVMTQTPLSLSVTPGQPASISCLSSQSLIYSDGNAYLHWYLQKPGQSPQLLIYKVSNRFSGVPDRFSGSGSGTDFTLKISRVEAEDVGVYYCSQSTHSPWTFGGGTKVEIK

This test deals with amyloid beta peptide (Aβ), form not stated (UniProt P05067). The experiment in a line: screening: capture filter lift assay and capture ELISA.
Regarding B1, the binding entry is recorded as “binds”. As to B2, the binding result was “binds”. In the case of B3, the binding entry is on record as “binds”.

As to B4, the binding entry is “binds”. For the molecule B5, the binding result was “binds”. For the molecule B6, the binding entry was “binds”. Then B7, with “binds”; and B8, with “binds”; and B9, with “binds”.

As for B10, the binding result was “binds”. B11: the binding entry was “binds”.

In the case of B12, the binding entry is listed as “binds”. For B13, the binding result was “binds”.

Regarding B14, the binding entry is recorded as “binds”.

Regarding B15, the binding entry is “binds”. As to B16, the binding result is “binds”. For the molecule B17, the binding entry is “binds”. To B18 belongs “binds”; to B19, “binds”; to B20, “binds”. As to B21, the binding entry is given as “binds”.
